Data as given in PubChem BioAssay AID1224830 (NIAID, 2016).
The whole screen tested about 18,000 reagents; shown is an unselected part. In the full data, about 2,900 (16%) were called active. 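Calls are made per well; low scores hint the gene aids the LPS response, high scores that it dampens it.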 Repeated entries: four replicate wells of each siRNA pool.

Aim: 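Host factors that control LPS-induced TNF expression in human macrophages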 (primary screen)
System: human THP-1 monocytic leukaemia cells, TNF dual-luciferase reporter clone, PMA-differentiated to macrophage-like cells
Reagents: siRNA pool against human genes, 50 nM
Time to read-out: LPS for 4 h, given about 3 days after siRNA transfection
Conditions: bacterial LPS (TLR4 ligand), 10 ng/ml
Measurement: 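TNF firefly reporter luminescence divided by renilla, normalised to the plate median, then turned into a robust z-score for each replicate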
Direction: TNF reporter robust z-score: higher = stronger TNF reporter response to LPS
Call rule: 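Each well counts as active if its z-score is over 2.8 or under -1.5; controls are left without a call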

ZNHIT6 → TNF reporter robust z-score: 0.34; Call: inactive
ZNHIT6 → TNF reporter robust z-score: 1.16; Call: inactive
ZNHIT6 → TNF reporter robust z-score: 2.06; Call: inactive
ZNHIT6 → TNF reporter robust z-score: 1.05; Call: inactive
SNX25 → TNF reporter robust z-score: 0.64; Call: inactive
SNX25 → TNF reporter robust z-score: 0.75; Call: inactive
SNX25 → TNF reporter robust z-score: 0.1; Call: inactive
SNX25 → TNF reporter robust z-score: 0.06; Call: inactive
CLN6 → TNF reporter robust z-score: -0.53; Call: inactive
CLN6 → TNF reporter robust z-score: 1.74; Call: inactive
CLN6 → TNF reporter robust z-score: 0.3; Call: inactive
CLN6 → TNF reporter robust z-score: 0.71; Call: inactive
FUT8 → TNF reporter robust z-score: -0.35; Call: inactive
FUT8 → TNF reporter robust z-score: -0.1; Call: inactive
FUT8 → TNF reporter robust z-score: -0.71; Call: inactive
FUT8 → TNF reporter robust z-score: -0.15; Call: inactive
FIGNL1 → TNF reporter robust z-score: -0.03; Call: inactive
FIGNL1 → TNF reporter robust z-score: -0.8; Call: inactive
FIGNL1 → TNF reporter robust z-score: -1.39; Call: inactive
FIGNL1 → TNF reporter robust z-score: -0.43; Call: inactive
MRPS21 → TNF reporter robust z-score: 0.62; Call: inactive
MRPS21 → TNF reporter robust z-score: 1.37; Call: inactive
MRPS21 → TNF reporter robust z-score: 0.81; Call: inactive
MRPS21 → TNF reporter robust z-score: -0.84; Call: inactive
CYLD → TNF reporter robust z-score: -1.71; Call: active
CYLD → TNF reporter robust z-score: -1.97; Call: active
CYLD → TNF reporter robust z-score: -2.07; Call: active
CYP11B2 → TNF reporter robust z-score: 1.43; Call: inactive
CYP11B2 → TNF reporter robust z-score: 0.52; Call: inactive
CYP11B2 → TNF reporter robust z-score: 1.27; Call: inactive
CYP11B2 → TNF reporter robust z-score: 1.09; Call: inactive
ZAN → TNF reporter robust z-score: 0.11; Call: inactive
ZAN → TNF reporter robust z-score: 2.07; Call: inactive
ZAN → TNF reporter robust z-score: 1.53; Call: inactive
ZAN → TNF reporter robust z-score: 0.98; Call: inactive
KLHL15 → TNF reporter robust z-score: -1.29; Call: inactive
KLHL15 → TNF reporter robust z-score: -1.24; Call: inactive
KLHL15 → TNF reporter robust z-score: -1.11; Call: inactive
KLHL15 → TNF reporter robust z-score: -1.55; Call: active
CHST10 → TNF reporter robust z-score: -0.9; Call: inactive
CHST10 → TNF reporter robust z-score: -1.33; Call: inactive
CHST10 → TNF reporter robust z-score: -0.91; Call: inactive
CHST10 → TNF reporter robust z-score: -0.79; Call: inactive
ZNF281 → TNF reporter robust z-score: -1.21; Call: inactive
ZNF281 → TNF reporter robust z-score: -0.8; Call: inactive
ZNF281 → TNF reporter robust z-score: -0.49; Call: inactive
ZNF281 → TNF reporter robust z-score: -1.09; Call: inactive

Records listed above with an active call (4):
CYLD → TNF reporter robust z-score: -1.71; Call: active
CYLD → TNF reporter robust z-score: -1.97; Call: active
CYLD → TNF reporter robust z-score: -2.07; Call: active
KLHL15 → TNF reporter robust z-score: -1.55; Call: active
